Hit rate of the full screen: of about 300,000 compounds, about 3,700 (1.2%) were called active. The shares of active, inactive and inconclusive entries below differ from those in the screen. Calls follow the shape of the full dose curve; tested in HEK293 cells. Potencies beside an inconclusive call are fits to weak or partial responses and may not hold up.
Test: qHTS for Inhibitors of binding or entry into cells for Lassa Virus; also: nearly all actives have a fitted effect of over 50% in size
Conditions: Lassa virus pseudotype entry inhibition, cell reporter; series mostly up to 37.9 µM
Potency is read from the fitted curve at half-maximal effect.

| Structure (SMILES) | Potency |
| --- | --- |
| COCCN(Cc1ccccc1)C(=O)c1cc(-c2ccc(OC)c(OC)c2)nc2ccccc12 | inconclusive: 31.6 µM [inhibitor, single point] |
| N/C(=N\OC(=O)c1ccccc1)c1ccn[nH]1 | inconclusive: 28.2 µM [inhibitor, single point] |
| COc1cc(OC)c(-c2nn3c(-c4ccco4)nnc3s2)cc1OC | inconclusive: 1.26 µM [inhibitor, single point] |
| Nc1ncc(C(=O)O)c(-c2ccccc2)n1 | inconclusive: 1.26 µM [activator, single point] |
| Fc1ccc(Nc2nc(-c3ccncc3)cs2)cc1 | inactive |
| COc1ccc(Nc2nc(-c3cccs3)nc3ccccc23)c(OC)c1 | inconclusive: 16.4 µM [inhibitor, partial curve, poor fit] |
| CCCc1nc2ccccc2n1CC(O)COc1ccc(C(=O)OC)cc1 (centres undefined) | inactive |
| CCOC(=O)c1ccc(NC(=O)Cn2nnc(-c3ccccc3F)n2)cc1 | inactive |
| CCc1ccc(CNC(=O)c2cc3ccccn3n2)cc1 | inconclusive: 5.01 µM [inhibitor, full curve, poor fit] |
| CSc1ccc(/C=N/NC(=O)c2ccccc2Cl)cc1 | active: 8.91 µM |
| Cc1ccccc1NCC(=O)N/N=C/c1c(C)c(C(=O)c2ccc(Cl)cc2)n2ccccc12 | inconclusive: 3.55 µM [inhibitor, partial curve, poor fit] |
| CCOC(=O)C(=CNc1cc(OC)ccc1-n1cccc1)C(=O)OCC | inconclusive: 35.5 µM [inhibitor, single point] |
| COC(=O)C/C=C/[C@@H](C)[C@@H](/C=N/OC[C@@H](C)[C@H](OCc1ccccc1)C(C)C)NS(=O)(=O)c1ccc(C)cc1 | inconclusive: 4.61 µM [inhibitor, full curve] |
| O=C(O)C(Cc1ccccc1)NS(=O)(=O)c1ccc2c(c1)OCCO2 (centres undefined) | inconclusive: 6.51 µM [activator, single point] |
| CN(C)CCCNC(=O)/C(=C\c1ccc(-c2cccc([N+](=O)[O-])c2)o1)NC(=O)c1ccccc1 | inactive |
| Cc1c(-c2cccc(NC(=O)Nc3ccc(Cl)cc3)c2)nc2ncccn12 | inactive |
| CCCn1c(SCC(=O)c2cc(OC)ccc2OC)nnc1-c1ccco1 | inactive |
| COc1ccc2nc(Nc3ccccc3)sc2c1 | inconclusive: 15.8 µM [inhibitor, single point] |
| COc1ccc(S(=O)(=O)Oc2cccc(C(=S)N3CCOCC3)c2)cc1 | inconclusive: 35.5 µM [inhibitor, single point] |

Given tab-delimited: part of the list above
Structure (SMILES)	Potency
CN(C)CCCNC(=O)/C(=C\c1ccc(-c2cccc([N+](=O)[O-])c2)o1)NC(=O)c1ccccc1	inactive
Cc1c(-c2cccc(NC(=O)Nc3ccc(Cl)cc3)c2)nc2ncccn12	inactive

— PubChem BioAssay AID540256 (National Center for Advancing Translational Sciences (NCATS), 2011)
